Assay results taken from patent US20070066580A1, “Novel aldosterone antagonists and uses thereof” (Recordati Ireland Limited, priority 2005, published 2007).
Some results were stated once for a whole list of compounds, not compound by compound.

Assays:
[1] = molecular target: T1, ligand binding domain of the human mineralocorticoid receptor (hMR LBD) (Homo sapiens, UniProt P08235); test: Mineralocorticoid receptor (MR) in vitro competitive binding assay, [3H]aldosterone displacement; conditions: competitive binding; for RIC50^Sp/Test = IC50^Sp/IC50^Test for ligand binding to MR: potency ratio versus spironolactone; for RIC50^Ep/Test = IC50^Ep/IC50^Test for ligand binding to MR: potency ratio versus eplerenone
T1 construct: made in house; host or cells: Sf9 insect cells (baculovirus, pFastBac)
T1 sequence (P08235 729-984): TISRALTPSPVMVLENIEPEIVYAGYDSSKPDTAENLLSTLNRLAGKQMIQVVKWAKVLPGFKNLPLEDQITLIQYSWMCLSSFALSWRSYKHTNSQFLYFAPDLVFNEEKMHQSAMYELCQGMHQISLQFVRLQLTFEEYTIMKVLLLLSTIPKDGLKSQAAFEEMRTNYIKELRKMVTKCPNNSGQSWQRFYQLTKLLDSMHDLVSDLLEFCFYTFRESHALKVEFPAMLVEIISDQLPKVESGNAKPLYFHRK
Description: Mineralocorticoid receptor (MR) binding assay: Spodoptera furgiperda (Sf9) insect cells (ATCC accession number CRL-1711) were maintained in culture in EX-CELL™ 420 serum free medium (JRH Biosciences, Inc.) at 27° C.
A recombinant baculovirus containing nucleotide sequences encoding the ligand binding domain of the human mineralocorticoid receptor (hMR) cloned into the pFastBac™ vector was generated using the Bac-to-Bac® Baculovirus Expression System Kit (Invitrogen) following the manufacturer's instructions. This recombinant baculovirus contains nucleotides 2401 through 3168 (SEQ ID NO: 13) of hMR, providing for expression of the ligand binding domain (LBD), amino acid residues 729-984 (SEQ ID NO: 14), of hMR (hMR LBD). Cultured Sf9 insect cells were transfected with this recombinant baculovirus following the manufacturer's instructions.
For the binding assay, a crude lysate of the hMR LBD-expressing insect cells was prepared. The crude lysate was diluted 12.5-fold with binding buffer (20 mM Tris-HCl pH 7.4, 1 mM EDTA, 1 mM dithiothreitol, 20 mM sodium tungstate, 50 mM KCl and 10% glycerol).
For the negative control sample, the diluted lysate was incubated with a 10 nM final concentration of the radioligand [1,2,6,7-^3H] aldosterone (Amersham Biosciences, catalogue # 434) for 3.5 h at 4° C. For test compounds and the positive control sample, the diluted lysate was incubated with various concentrations of test compound or with a 20 μM final concentration of spironolactone (Sigma, S-3378) as a reference compound for 45 min on ice, and was then incubated with a 10 nM final concentration of [1,2,6,7-^3H] aldosterone for 3.5 h at 4° C.
Using a CellHarvester (PerkinElmer, formerly Packard Biosciences), receptor/ligand complexes were retained on 96-well GF/B filters (PerkinElmer, formerly Packard Biosciences) while free radioligand passed through the filters. Scintillation counting of GF/B filter plates was performed using a TopCount NXT (PerkinElmer, formerly Packard Biosciences) to quantitate the amount of [1,2,6,7-^3H] aldosterone bound to the hMR LBD.
The IC50 of a test compound was determined from the concentration of test compound giving half-maximal displacement as obtained by nonlinear least-squares curve fitting to a one-site binding sigmoidal model using Prism 3.0 (Graph Pad Software, Inc., San Diego, US). The calculated IC50 values represent the average values calculated from the results of 1-3 experiments carried out in duplicate.
IC50 and inhibitory ratio calculations: To provide a measure of the potency of each test compound as an antagonist of MR, the IC50 of each test compound (IC50^Test) for ligand binding to MR and the IC50 of the known MR antagonists eplerenone (IC50^Ep) and spironolactone (IC50^Sp) for ligand binding to MR were used to calculate an IC50 ratio (RIC50) according to the following equations: RIC50^Ep/Test=IC50^Ep/IC50^Test and RIC50^Sp/Test=IC50^Sp/IC50^Test.
These individual inhibitory ratios were used to calculate a total inhibitory ratio (IR^TOTAL) according to the following equation: IR^TOTAL=IR^AR/MR+IR^ER/MR+IR^GR/MR+IR^PR/MR. B. Results and Discussion

[2] = molecular target: T2, GAL4 DBD-hMR LBD fusion protein (Homo sapiens, UniProt P08235); test: Cell-based luciferase assay, antagonist mode (aldosterone-induced reporter expression in CV-1 cells); conditions: for RIC50^Ep/Test = IC50^Ep/IC50^Test for aldosterone induction of luciferase expression: potency ratio versus eplerenone; for RIC50^Sp/Test = IC50^Sp/IC50^Test for aldosterone induction of luciferase expression: potency ratio versus spironolactone
T2 construct: expressed in transfected cells; host or cells: CV-1 cells (African green monkey kidney), transient co-transfection with pCMX-GAL4-based vector and Galp3TKLuc reporter

SMILES | RIC50^Sp/Test = IC50^Sp/IC50^Test for ligand binding to MR [1] | RIC50^Ep/Test = IC50^Ep/IC50^Test for aldosterone induction of luciferase expression [2] | RIC50^Sp/Test = IC50^Sp/IC50^Test for aldosterone induction of luciferase expression [2] | RIC50^Ep/Test = IC50^Ep/IC50^Test for ligand binding to MR [1]
C=CCC[C@@H]1CC2=CC(=O)CC[C@]2(C)C2=CC[C@@]3(C)C(CC[C@@]34CCC(=O)O4)C21 (some centres unmarked) [Example 8] | ≥ 1.0 | ≥ 1.0 | ≥ 1.0 | 
CCC[C@@H]1CC2=CC(=O)CC[C@]2(C)C2=CC[C@@]3(C)C(CC[C@@]34CCC(=O)O4)C21 (some centres unmarked) [Example 9] |  | ≥ 1.0 | ≥ 1.0 | 
CCC[C@@H]1CC2=CC(=O)CC[C@]2(C)[C@@]23O[C@@H]2C[C@@]2(C)C(CC[C@@]24CCC(=O)O4)C13 (some centres unmarked) [Example 10] | ≥ 1.0 | ≥ 1.0 | ≥ 1.0 | 
CC(=O)S[C@@H]1CC2=CC(=O)CC[C@]2(C)C2=CC[C@@]3(C)C(CC[C@@]34CCC(=O)O4)C21 (some centres unmarked) [Example 11] | ≥ 1.0 | ≥ 10.0 |  | ≥ 10.0
CCCS[C@@H]1CC2=CC(=O)CC[C@]2(C)[C@@]23O[C@@H]2C[C@@]2(C)C(CC[C@@]24CCC(=O)O4)C13 (some centres unmarked) [Example 12] | ≥ 0.5 | ≥ 1.0 | ≥ 1.0 | ≥ 10.0
C[C@]12CCC(=O)C=C1C[C@@H](SCC(F)(F)F)C1C2=CC[C@@]2(C)C1CC[C@@]21CCC(=O)O1 (some centres unmarked) [Example 18] | ≥ 1.0 | ≥ 1.0 | ≥ 1.0 | ≥ 10.0
CCOC(=O)C1(F)C[C@@]2(CCC3C4CCC5=CC(=O)CC[C@]5(C)C4=CC[C@@]32C)OC1=O (some centres unmarked) [Example 21] |  |  |  | ≥ 1.0
C[C@]12CCC(=O)C=C1CC(C=NOCc1ccccc1)C1C2=CC[C@@]2(C)C1CC[C@@]21CCC(=O)O1 (some centres unmarked) [Example 23] |  |  | ≥ 0.5 | ≥ 10.0
CC[S+]([O-])[C@@H]1CC2=CC(=O)CC[C@]2(C)C2=CC[C@@]3(C)C(CC[C@@]34CCC(=O)O4)C21 (some centres unmarked) [Example 24] |  | ≥ 1.0 |  | 
C[C@]12CCC(=O)C=C1C[C@@H](SCC(F)(F)F)C1C3CC[C@@]4(CCC(=O)O4)[C@@]3(C)C[C@H]3O[C@@]132 (some centres unmarked) [Example 27] |  | ≥ 1.0 |  | ≥ 1.0
CC(=O)SC1CC2=CC(=O)CC[C@]2(C)C2=CC[C@@]3(C)C(CC[C@@]34CC(F)C(=O)O4)C21 (some centres unmarked) [Example 28] | ≥ 1.0 |  |  | ≥ 10.0
C[C@]12CCC(=O)C=C1C[C@@H](NC(=O)C(F)(F)F)C1C3CC[C@@]4(CCC(=O)O4)[C@@]3(C)C[C@H]3O[C@@]132 (some centres unmarked) [Example 33] |  | ≥ 1.0 |  | ≥ 1.0
CO/N=C/[C@@H]1CC2=CC(=O)CC[C@]2(C)C2=CC[C@@]3(C)C(CC[C@@]34CCC(=O)O4)C21 (some centres unmarked) [Example 34] | ≥ 1.0 | ≥ 1.0 | ≥ 1.0 | ≥ 10.0
C[C@]12CCC(=O)C=C1C[C@@H](CO)C1C2=CC[C@@]2(C)C1CC[C@@]21CCC(=O)O1 (some centres unmarked) [Example 36] |  | ≥ 1.0 |  | ≥ 1.0
C[C@]12CCC(=O)C=C1CCC1C2=CC[C@@]2(C)C1CCC21COC(=O)O1 (some centres unmarked) [Example 38] |  | ≥ 1.0 |  | 
CN1C[C@@]2(CCC3C4CCC5=CC(=O)CC[C@]5(C)C4=CC[C@@]32C)OC1=S (some centres unmarked) [Example 40] |  |  | ≥ 0.5 | ≥ 1.0
C[C@]12CCC(=O)C=C1CCC1C3CC[C@@]4(COC(=O)O4)[C@@]3(C)C[C@H]3O[C@@]132 (some centres unmarked) [Example 41] |  | ≥ 1.0 | ≥ 1.0 | 
CC(=O)S[C@@H]1CC2=CC(=O)CC[C@]2(C)C2=CC[C@@]3(C)C(CC[C@@]34COC(=O)O4)C21 (some centres unmarked) [Example 42] |  |  | ≥ 0.5 | ≥ 1.0
C[C@]12CCC(=O)C=C1CCC1C2=CC[C@@]2(C)C1CC[C@@]21CCC1=O (some centres unmarked) [Example 44] | ≥ 1.0 | ≥ 1.0 |  | ≥ 10.0
C[C@]12CCC(=O)C=C1C[C@@H](SC1CCCC1)C1C2=CC[C@@]2(C)C1CC[C@@]21CCC(=O)O1 (some centres unmarked) [Example 53] | ≥ 1.0 | ≥ 1.0 |  | 
COC[C@@H]1CC2=CC(=O)CC[C@]2(C)C2=CC[C@@]3(C)C(CC[C@@]34CCC(=O)O4)C21 (some centres unmarked) [Example 59] |  | ≥ 1.0 |  | ≥ 1.0
CCC[C@@H]1CC2=CC(=O)CC[C@]2(C)[C@@]23O[C@@H]2C[C@@]2(C)C(C13)[C@@H]1C[C@@H]1[C@@]21CCC(=O)O1 (some centres unmarked) [Example 71] | ≥ 1.0 |  | ≥ 1.0 | ≥ 10.0
COC(=O)[C@@H]1CC2=CC(=O)CC[C@]2(C)C2=CC[C@@]3(C)C(C21)[C@@H]1C[C@@H]1[C@@]31COC(=O)O1 (some centres unmarked) [Example 77] | ≥ 1.0 | ≥ 1.0 |  | ≥ 10.0
COC(=O)[C@H]1C2C(=CC[C@@]3(C)C2[C@@H]2C[C@@H]2[C@@]32CCC(=O)O2)[C@@]2(C)CCC(=O)C=C2[C@@H]1CO (some centres unmarked) [Example 80] |  |  |  | ≥ 1.0
CO/N=C/[C@H]1CC2=CC(=O)CC[C@]2(C)C2=CC[C@@]3(C)C(C21)[C@@H]1C[C@@H]1[C@@]31CCC(=O)O1 (some centres unmarked) [Example 82A] | ≥ 1.0 | ≥ 1.0 |  | ≥ 10.0
CO/N=C/[C@@H]1CC2=CC(=O)CC[C@]2(C)C2=CC[C@@]3(C)C(C21)[C@@H]1C[C@@H]1[C@@]31CCC(=O)O1 (some centres unmarked) [Example 82B] | ≥ 1.0 | ≥ 1.0 |  | ≥ 10.0
